In US20090018120A1, “AMIDINE DERIVATIVES AND THEIR APPLICATIONS AS A MEDICAMENT” (priority 2005, published 2009):
pIC50: −log10 of the molar value. Some entries share one result that the patent states for a list of compounds. At least one structure is not confirmed: it was looked up by name or label, or the drawing left a doubt.

These molecules were tested on lipidic peroxidation in homogenate of rat cerebral cortex (assay: Effects on lipidic peroxidation (MDA) in the cerebral cortex of the rat). Conditions: FeCl2/EDTA/ascorbic acid.
Assay type: biochemical

Q: `COC1OCC[C@@H]1NC(=O)[C@H](CC(C)C)NC(=N)c1ccc2c(c1)Nc1ccccc1S2` (stereo partly drawn) [Example 1, N^2-[imino(10H-phenothiazin-2-yl)methyl]-N′-[(3S)-2-methoxytetrahydrofuran-3-yl]-L-leucinamide hydroiodide] was tested. Which pIC50 did it give?
A: > 5.30

Q: How did the pIC50 turn out when `CC(C)C[C@H](NC(=N)c1ccc2c(c1)Nc1ccccc1S2)C(=O)N[C@H]1CCOC1OCc1ccccc1` (stereo partly drawn) [Example 2, N^1-[(3S)-2-(benzyloxy)tetrahydrofuran-3-yl]-N^2-[imino(10H-phenothiazin-2-yl)methyl]-L-leucinamide hydroiodide] was run?
A: > 5.30

Q: With `CC(C)C[C@H](NC(=N)c1ccc2c(c1)Nc1ccccc1S2)C(=O)N[C@H]1CCOC1OCc1ccc2ccccc2c1` (stereo partly drawn) [Example 3, N^2-[imino(10H-phenothiazin-2-yl)methyl]-N^1-[(3S)-2-(2-naphthylmethoxy)tetrahydrofuran-3-yl]-L-leucinamide hydroiodide] as the molecule, how does the pIC50 read?
A: > 5.30

Q: With `CC(=O)OC1OCC[C@@H]1NC(=O)[C@H](CC(C)C)NC(=N)c1ccc2c(c1)Nc1ccccc1S2.I` (stereo partly drawn) [Example 4, (3S)-3-({N-[imino(10H-phenothiazin-2-yl)methyl]-L-leucyl}amino)tetrahydrofuran-2-yl acetate hydroiodide] as the molecule, how does the pIC50 read?
A: > 5.30

Q: `CC(C)C[C@H](NC(=N)c1ccc2c(c1)Nc1ccccc1S2)C(=O)N[C@H]1CCOC1O.I` (stereo partly drawn) [Example 5, N^1-[(3S)-2-hydroxytetrahydrofuran-3-yl]-N^2-[imino(10H-phenothiazin-2-yl)methyl]-L-leucinamide hydroiodide] was tested. Which pIC50 did it give?
A: > 5.30
